Source: patent US20220160663A1 (SEOUL NATIONAL UNIVERSITY R AND DB FOUNDATION, published 2022)
These are yes or no findings as the source states them, for the method shown. Binding seen in cells or lysates may run through a third protein. Some results given as binding are weak or reduced against the parent protein; the word gives no strength.

Sequences of proteins named here, by UniProt entry; tags and fusion partners are left off.
UniProt P11166: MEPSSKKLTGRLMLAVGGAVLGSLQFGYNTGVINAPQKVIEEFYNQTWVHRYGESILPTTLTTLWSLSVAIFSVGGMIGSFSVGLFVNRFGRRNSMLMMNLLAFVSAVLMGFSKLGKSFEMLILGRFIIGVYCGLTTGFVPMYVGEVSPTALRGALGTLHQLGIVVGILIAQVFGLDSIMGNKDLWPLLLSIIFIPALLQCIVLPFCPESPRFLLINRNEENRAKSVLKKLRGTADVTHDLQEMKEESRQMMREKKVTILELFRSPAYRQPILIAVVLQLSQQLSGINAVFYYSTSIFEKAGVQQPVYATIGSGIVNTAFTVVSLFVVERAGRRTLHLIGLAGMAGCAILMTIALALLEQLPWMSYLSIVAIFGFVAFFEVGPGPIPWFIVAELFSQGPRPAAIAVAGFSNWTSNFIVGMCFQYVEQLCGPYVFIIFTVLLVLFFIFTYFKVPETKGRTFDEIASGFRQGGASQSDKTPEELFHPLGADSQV
UniProt O14894: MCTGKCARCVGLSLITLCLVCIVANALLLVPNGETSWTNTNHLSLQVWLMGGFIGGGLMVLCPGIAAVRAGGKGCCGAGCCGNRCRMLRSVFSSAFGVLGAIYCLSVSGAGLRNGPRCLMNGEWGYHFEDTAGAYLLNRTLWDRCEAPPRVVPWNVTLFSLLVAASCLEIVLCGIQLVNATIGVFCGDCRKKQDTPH

Assays:
[1] = target: Glut1 (accession number: NP_006507) WT, HA-tagged (UniProt P11166); assay: Strep pull-down, Western blot (summary of results in the description)
[2] = target: Glut1 (accession number: NP_006507) WT, HA-tagged (UniProt P11166); assay: Strep pull-down from THP-1 cell extract, anti-HA Western blot (summary of Exp. Ex. 4-1 and 4-2)
[3] = target: Glut1 (accession number: NP_006507) WT, HA-tagged (UniProt P11166); assay: Strep pull-down from THP-1 cell extract, anti-HA Western blot

binding [1]: binds
binding [2]: binds
binding [3]: binds
Substance: TM4SF5-Strep WT (transmembrane 4 L six family member 5, Strep-tagged) (from UniProt O14894 1-197)
